Laboratory results reported in publication PMC5827551.
These are yes or no findings as the source states them, for the method shown. In cells and extracts the contact can be indirect. Some entries that bind do so weakly or less than the wild type. Blank lines part the entries; values can stand above or below the substance they belong to.

The chains behind the UniProt entries cited, without tags or fusion partners.
UniProt P09429: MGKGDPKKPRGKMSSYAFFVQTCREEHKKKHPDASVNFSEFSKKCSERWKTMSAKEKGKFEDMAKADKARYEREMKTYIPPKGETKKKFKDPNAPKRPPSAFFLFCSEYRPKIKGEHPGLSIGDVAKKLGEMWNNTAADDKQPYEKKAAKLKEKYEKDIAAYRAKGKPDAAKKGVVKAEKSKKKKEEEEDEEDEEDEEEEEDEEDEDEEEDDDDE
UniProt P63158: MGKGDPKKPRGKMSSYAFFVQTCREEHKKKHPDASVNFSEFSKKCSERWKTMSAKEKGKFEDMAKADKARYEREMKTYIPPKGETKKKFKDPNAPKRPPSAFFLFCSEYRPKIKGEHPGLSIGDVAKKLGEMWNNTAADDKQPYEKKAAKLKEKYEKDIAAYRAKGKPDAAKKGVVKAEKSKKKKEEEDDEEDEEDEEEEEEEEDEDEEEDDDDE
UniProt P09211: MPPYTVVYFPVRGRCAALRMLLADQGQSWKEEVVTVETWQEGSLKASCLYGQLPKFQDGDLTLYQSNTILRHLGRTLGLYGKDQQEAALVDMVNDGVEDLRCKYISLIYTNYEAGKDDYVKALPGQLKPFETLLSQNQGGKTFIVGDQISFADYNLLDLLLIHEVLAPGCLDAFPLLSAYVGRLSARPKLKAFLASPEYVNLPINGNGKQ
UniProt Q6P5F9: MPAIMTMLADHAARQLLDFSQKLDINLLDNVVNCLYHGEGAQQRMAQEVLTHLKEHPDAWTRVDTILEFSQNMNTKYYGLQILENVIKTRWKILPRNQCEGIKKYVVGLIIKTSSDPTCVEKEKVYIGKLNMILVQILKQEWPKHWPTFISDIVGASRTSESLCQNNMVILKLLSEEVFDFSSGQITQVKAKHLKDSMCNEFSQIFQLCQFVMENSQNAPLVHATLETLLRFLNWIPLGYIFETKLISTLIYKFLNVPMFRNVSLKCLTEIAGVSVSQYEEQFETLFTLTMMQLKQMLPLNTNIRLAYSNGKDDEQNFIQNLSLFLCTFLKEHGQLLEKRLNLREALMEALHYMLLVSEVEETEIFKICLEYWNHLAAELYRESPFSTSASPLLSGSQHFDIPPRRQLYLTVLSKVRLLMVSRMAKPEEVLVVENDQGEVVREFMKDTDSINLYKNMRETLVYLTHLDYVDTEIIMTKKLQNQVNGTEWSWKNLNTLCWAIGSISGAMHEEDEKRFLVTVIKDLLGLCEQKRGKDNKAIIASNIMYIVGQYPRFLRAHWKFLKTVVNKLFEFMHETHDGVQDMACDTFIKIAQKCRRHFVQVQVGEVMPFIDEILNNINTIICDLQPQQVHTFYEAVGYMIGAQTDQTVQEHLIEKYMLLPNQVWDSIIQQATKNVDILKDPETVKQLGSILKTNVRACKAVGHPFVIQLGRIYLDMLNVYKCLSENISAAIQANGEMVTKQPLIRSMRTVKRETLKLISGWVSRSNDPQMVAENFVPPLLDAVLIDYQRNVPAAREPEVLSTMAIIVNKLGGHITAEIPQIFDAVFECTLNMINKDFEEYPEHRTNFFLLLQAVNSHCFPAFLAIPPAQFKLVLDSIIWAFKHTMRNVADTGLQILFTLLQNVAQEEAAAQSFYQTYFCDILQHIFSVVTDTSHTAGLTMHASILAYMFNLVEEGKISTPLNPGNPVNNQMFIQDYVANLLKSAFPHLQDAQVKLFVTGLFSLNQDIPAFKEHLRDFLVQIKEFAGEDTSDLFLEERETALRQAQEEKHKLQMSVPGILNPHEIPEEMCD

Legend:
[1] = biological target: His-HMGB1, recombinant polyhistidine-tagged (UniProt P09429); assay: pull-down; His-HMGB1 immobilised on Ni2+-IDA-agarose beads, incubated with lysates of HEK293 cells transfected with Flag-GSTP (WT or mutants), lysis buffer, 4°C, 8 h; immunoblotting; only the target purified
[2] = biological target: High mobility group box-1 protein (HMGB1), endogenous in RAW264.7 cells (mouse (endogenous in RAW264.7)) (UniProt P63158); assay: co-IP; nuclear extracts of RAW264.7 cells transfected with Flag-GSTP or empty vector, LPS (500 ng/ml) for indicated time; immunoprecipitation with anti-HMGB1 or anti-Flag antibody and protein A/G plus-agarose at 4°C overnight, immunoblotting
[3] = biological target: His-GSTP (WT), recombinant polyhistidine-tagged (UniProt P09211); assay: pull-down; His-GSTP (WT or mutants) immobilised on Ni2+-IDA-agarose beads, incubated with lysates of HEK293 cells transfected with Flag-HMGB1, lysis buffer, 4°C, 8 h; immunoblotting with anti-His or anti-Flag; only the target purified
[4] = biological target: High mobility group box-1 protein (HMGB1), endogenous in RAW264.7 cells (mouse (endogenous in RAW264.7)) (UniProt P63158); assay: co-IP; whole cell lysates of RAW264.7 cells transfected with Flag-GSTP or empty vector, LPS (500 ng/ml) for 0-30 min or 6 h, also PMA (100 nM) and GF109203X (10 µM) pretreatment; immunoprecipitation with anti-Flag, anti-cPKC or anti-HMGB1 antibody, immunoblotting

binding [1]: binds
Substance: Flag-GSTP (WT), expressed in HEK293 cells (from UniProt P09211 1-210) (enzyme)

binding [2]: binds
Substance: Flag-GSTP (glutathione S-transferase Pi, wild type), expressed in RAW264.7 cells (from UniProt P09211 1-210) (enzyme)

binding [3]: binds
Substance: Flag-HMGB1, expressed in HEK293 cells (from UniProt P09429 1-215)

binding [4]: binds
Substance: chromosomal region maintenance 1 (CRM1), endogenous in RAW264.7 cells (from UniProt Q6P5F9 1-1071)
